According to ChEMBL document CHEMBL2086354, “Testing the promiscuity of commercial kinase inhibitors against the AGC kinase group using a split-luciferase screen” (J Med Chem, 2012):
Active and inactive are the calls of the source. The rule behind the calls is not given here.

Sequences of proteins named here, by UniProt entry; tags and fusion partners are left off. A change or cut given only in a name is not applied to a line headed by its entry.
UniProt P31749: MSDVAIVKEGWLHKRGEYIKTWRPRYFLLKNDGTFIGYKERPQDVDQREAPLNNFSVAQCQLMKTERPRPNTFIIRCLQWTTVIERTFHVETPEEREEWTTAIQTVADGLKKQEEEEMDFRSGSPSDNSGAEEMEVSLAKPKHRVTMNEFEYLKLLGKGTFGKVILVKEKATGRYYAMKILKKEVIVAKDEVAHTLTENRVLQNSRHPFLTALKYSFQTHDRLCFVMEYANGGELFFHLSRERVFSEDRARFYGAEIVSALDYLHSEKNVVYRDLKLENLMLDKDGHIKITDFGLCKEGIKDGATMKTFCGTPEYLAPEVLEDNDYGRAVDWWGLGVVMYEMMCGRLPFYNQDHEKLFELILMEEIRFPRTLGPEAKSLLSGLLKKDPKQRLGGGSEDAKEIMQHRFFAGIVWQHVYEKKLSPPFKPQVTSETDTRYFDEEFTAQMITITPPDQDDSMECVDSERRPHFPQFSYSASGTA
UniProt P31751: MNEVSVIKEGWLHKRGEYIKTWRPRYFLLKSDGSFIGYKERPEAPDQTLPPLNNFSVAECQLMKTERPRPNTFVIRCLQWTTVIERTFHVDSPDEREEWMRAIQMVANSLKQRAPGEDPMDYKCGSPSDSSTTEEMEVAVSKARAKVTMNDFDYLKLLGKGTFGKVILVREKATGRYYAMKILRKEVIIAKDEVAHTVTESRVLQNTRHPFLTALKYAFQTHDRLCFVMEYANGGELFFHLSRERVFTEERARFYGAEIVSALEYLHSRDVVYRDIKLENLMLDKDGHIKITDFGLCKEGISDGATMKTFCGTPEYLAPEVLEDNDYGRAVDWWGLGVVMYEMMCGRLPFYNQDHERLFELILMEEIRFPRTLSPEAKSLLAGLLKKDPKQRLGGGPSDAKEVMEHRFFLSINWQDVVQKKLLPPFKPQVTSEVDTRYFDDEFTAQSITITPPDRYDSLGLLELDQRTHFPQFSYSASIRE
UniProt Q9Y243: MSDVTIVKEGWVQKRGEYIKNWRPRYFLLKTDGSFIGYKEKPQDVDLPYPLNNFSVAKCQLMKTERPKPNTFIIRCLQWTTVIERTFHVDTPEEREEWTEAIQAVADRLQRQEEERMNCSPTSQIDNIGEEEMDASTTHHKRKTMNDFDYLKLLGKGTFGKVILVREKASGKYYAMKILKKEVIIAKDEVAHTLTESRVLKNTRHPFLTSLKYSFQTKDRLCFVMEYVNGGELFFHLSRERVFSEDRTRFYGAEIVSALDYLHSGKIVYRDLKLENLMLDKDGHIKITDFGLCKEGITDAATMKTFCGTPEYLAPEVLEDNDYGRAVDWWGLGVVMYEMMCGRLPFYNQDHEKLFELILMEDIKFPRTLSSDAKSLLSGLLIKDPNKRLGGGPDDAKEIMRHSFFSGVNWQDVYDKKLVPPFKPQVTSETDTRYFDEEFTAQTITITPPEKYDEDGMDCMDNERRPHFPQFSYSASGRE
UniProt Q05655: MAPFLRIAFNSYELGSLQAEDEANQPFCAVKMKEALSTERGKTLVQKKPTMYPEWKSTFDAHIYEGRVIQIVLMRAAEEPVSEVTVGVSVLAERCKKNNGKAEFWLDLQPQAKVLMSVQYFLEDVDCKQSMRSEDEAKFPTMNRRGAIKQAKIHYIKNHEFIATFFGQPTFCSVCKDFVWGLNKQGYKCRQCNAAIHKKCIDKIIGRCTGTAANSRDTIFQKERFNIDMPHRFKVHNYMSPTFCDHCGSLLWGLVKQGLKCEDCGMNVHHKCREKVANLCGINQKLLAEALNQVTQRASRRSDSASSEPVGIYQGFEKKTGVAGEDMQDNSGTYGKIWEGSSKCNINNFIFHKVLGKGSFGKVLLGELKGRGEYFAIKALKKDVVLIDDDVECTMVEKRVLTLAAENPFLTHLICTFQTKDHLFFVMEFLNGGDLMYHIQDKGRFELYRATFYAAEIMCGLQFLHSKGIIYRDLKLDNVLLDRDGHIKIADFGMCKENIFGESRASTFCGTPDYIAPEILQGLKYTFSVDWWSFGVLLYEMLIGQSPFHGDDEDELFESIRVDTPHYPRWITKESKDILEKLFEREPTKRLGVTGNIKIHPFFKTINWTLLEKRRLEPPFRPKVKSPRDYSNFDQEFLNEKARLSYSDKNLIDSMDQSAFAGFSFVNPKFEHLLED

Legend:
[1] = molecular target: RAC-alpha serine/threonine-protein kinase (Homo sapiens) (UniProt P31749); experiment: Inhibition of AKT1 at 10 uM by luciferase assay
Outline: (§1)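 Cell-free split-firefly-luciferase competitive binding assay: Cfluc-kinase fusion mRNA co-translated with Fos-Nfluc mRNA in rabbit reticulocyte lysate, 30 °C for 90 min, then frozen at −80 °C and thawed on ice. Lysate given active-site probe (120 nM final) and inhibitor at 10 μM final in DMSO, 1 h at room temperature. Luminescence read after luciferin reagent, in duplicate. Percent inhibition = 1 − (background-subtracted signal ÷ DMSO positive control).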

[2] = molecular target: RAC-beta serine/threonine-protein kinase (Homo sapiens) (UniProt P31751); experiment: Inhibition of AKT2 at 10 uM by luciferase assay; outline: as §1
[3] = molecular target: RAC-gamma serine/threonine-protein kinase (Homo sapiens) (UniProt Q9Y243); experiment: Inhibition of AKT3 at 10 uM by luciferase assay; outline: as §1
[4] = molecular target: Protein kinase C delta type (Homo sapiens) (UniProt Q05655); experiment: Inhibition of Protein kinase C delta type at 10 uM by luciferase assay; outline: as §1
[5] = molecular target: T1, Protein kinase C epsilon type (Homo sapiens) (UniProt Q02156); experiment: Inhibition of Protein kinase C epsilon type at 10 uM by luciferase assay; outline: as §1
T1 sequence (whole entry): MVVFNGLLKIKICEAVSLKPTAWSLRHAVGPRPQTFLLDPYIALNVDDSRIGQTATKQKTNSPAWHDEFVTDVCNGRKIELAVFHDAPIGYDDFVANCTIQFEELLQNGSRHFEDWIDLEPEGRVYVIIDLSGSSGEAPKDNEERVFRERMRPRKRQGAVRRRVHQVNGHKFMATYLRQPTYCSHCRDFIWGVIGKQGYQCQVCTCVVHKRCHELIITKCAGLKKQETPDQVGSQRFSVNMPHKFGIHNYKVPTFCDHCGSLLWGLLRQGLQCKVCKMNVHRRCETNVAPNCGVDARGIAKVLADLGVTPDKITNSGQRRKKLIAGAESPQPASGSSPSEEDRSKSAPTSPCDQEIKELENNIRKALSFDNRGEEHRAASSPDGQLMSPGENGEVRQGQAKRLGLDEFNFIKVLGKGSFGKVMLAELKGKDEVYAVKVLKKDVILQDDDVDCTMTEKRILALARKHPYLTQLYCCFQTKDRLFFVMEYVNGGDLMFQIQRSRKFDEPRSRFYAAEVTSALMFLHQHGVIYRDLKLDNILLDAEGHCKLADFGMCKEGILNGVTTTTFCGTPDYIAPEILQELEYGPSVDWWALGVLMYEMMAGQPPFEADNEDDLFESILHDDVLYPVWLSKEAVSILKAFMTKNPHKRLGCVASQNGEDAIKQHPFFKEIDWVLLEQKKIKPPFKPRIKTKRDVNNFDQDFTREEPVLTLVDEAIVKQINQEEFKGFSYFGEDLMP

[6] = molecular target: Protein kinase C gamma type (Homo sapiens) (UniProt P05129); experiment: Inhibition of Protein kinase C gamma type at 10 uM by luciferase assay; outline: as §1

inhibition [1]: inactive | inhibition [2]: inactive | inhibition [3]: inactive | inhibition [4]: inactive | inhibition [5]: inactive | inhibition [6]: inactive
Structure (SMILES): O=C1NC(=O)c2c1c(-c1ccccc1)cc1[nH]c3ccc(O)cc3c21
